Test results reported in WO2021065846A1.
No constants are given. Whether binding was seen depends on the method and setting. Some binding calls cover weakened binding; strength is not graded here.

B1: anti-1C10 idiotype antibody #103 (IgG) (antibody, V domains shown)
VH: QIQLVQSGPELKKPGETVKISCKASGSTFTNYGMNWVKQAPGKGLKWMGWINTNTGEPTFAEEFKGRFAFSLETSVSTAYLQINNLRNEDTATYFCARRWLRQDYFSMNYWGQGTSVTVS
VL: DIQMTQSPSSLAASLGERVSLTCRASQEISGYLSWLQQKPDRTIKRLINAATTLDSGVPKRFSGSRSGSDYSLTISSLEPEDFADYYCLQYASYPYTFGGGTKLIK
B2: anti-1C10 idiotype antibody #G46 (IgG) (antibody, V domains shown)
VH: EVQLQESGPELVKPGASVKMSCKASGYTFTSYVMHWEKQKPGQGLEWIGYINPYNDGTKYNEKFKGKATLTSDKSSSTAYMELSSLTSEDSAVYYCTRGGIIRGNYVIYNVMDYWGQGTS
VL: DIMTQSPASLSASVGETVTITCRASENIYSYLAWYQQKQGKSPQLLVYNAKTLAEGVPSRFSGSGSGTQFSLKINSLQPEDFGSYYCQHHNAPFTFGAGTKLELK
B3: Fab of anti-1C10 idiotype antibody #103 (Fab, V domains shown)
VH: B1 VH
VL: B1 VL

Legend:
[1] = biological target: anti-HIV-1 V3 antibody 1C10 (0.5γ); assay: inhibition ELISA: biotinylated 1C10 on NNT20 V3 peptide
[2] = biological target: anti-HIV-1 V3 antibody 1C10 (0.5γ); assay: SPR, Biacore T200, biotinylated 1C10 on SA chip, anti-idiotype antibody as analyte
[3] = biological target: anti-HIV-1 V3 antibody 1C10 (0.5γ); assay: sandwich ELISA: Fab coated as capture, 1C10, biotinylated IgG #87 as detection

| Binder | binding [1] | binding [2] | binding [3] |
| --- | --- | --- | --- |
| B1 | binds | – | – |
| B2 | binds | binds | – |
| B3 | – | – | binds |
